About 1,400 (4.5%) of roughly 31,000 sequences were called active.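 Rule for the calls: active = median seed-adjusted z-score above 1 or below -1; inactive = the rest.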 Some of the results follow.

The test is described as follows: Novel Modifiers of Survival Motor Neuron (SMN) Protein: Gene Identification via Genome-wide siRNA Screen.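 Note: luminescence tracks full-length SMN protein made from the SMN2 reporter.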 As to conditions: HEK293T SMN2-luciferase reporter, siRNA knockdown, 72 h; actives lie on both sides. The method, boiled down:
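Each of three siRNAs per gene is reverse-transfected (1 pmol) into reporter HEK293T cells whose luciferase output tracks SMN protein level. After 72 h culture, ONE-Glo luminescence is control-normalized, log10-transformed and MAD-standardized; Common Seed Analysis deprioritizes seed-driven hits.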
On to GGUUGAACCUCGAAGAUCATT against PARL, for which the median seed-adjusted z-score is inactive: -0.0659.

GCAAAUGAGUGUGACCUAATT against RAB38: the median seed-adjusted z-score is inactive: -0.165.

In the case of GAACCACAAGGAGAAGUUUTT against PSMC3, the median seed-adjusted z-score is inactive: -0.701.

GGAUAUAAGGUACUCUACATT against CNTN1: the median seed-adjusted z-score was inactive: -0.796. The same measure for AGACUAAACUACUCUCGAATT against WDR46: inactive: -0.136; for GUUGAUAGGUUGUAUACAATT against B4GALT6: inactive: 0.224; for CGUCAUCACAGUCAACUAUTT against NLGN1: inactive: 0.187.

Consider GUAUCAACCAAAGUAUAGATT against ESCO2, for which the median seed-adjusted z-score was inactive: 0. The result for CAUCUUGCAUUACAACAUATT against DLGAP1 reads inactive: 0.357; that for CGGAAUCAAUGAUCCUGUATT against RBM22, inactive: 0.0259; that for GGACGGUUCGUACCUAGUATT against PPTC7, inactive: 0.49. Consider GGAGACUUUGAUUCUAUUATT against TPK1, for which the median seed-adjusted z-score is inactive: 0.521.

As for ACACUCUCAUGGAAUCAGATT against MEOX1, the median seed-adjusted z-score is inactive: 0.0171. The result for GCAAGACCUAUGAAACGAUTT against CADPS reads inactive: 0.551; that for GGAGCUACGCUGUCCACAUTT against FUT4, inactive: -0.24. The same measure for CCCGGAGCCUAUCAGCAAATT against NEBL: inactive: 0.0769; for CGAUGUCAACUGCUCGGUUTT against CTSC: inactive: 0; for CAUGGGAGGUGACACGGAATT against KLHL25: inactive: -0.0146.

As for GGACCGCUUUUACAAUGCATT against MAP3K5, the median seed-adjusted z-score is inactive: -0.285. The result for CUGUCUAUUUGUUCCCUUUTT against UBE2E3 reads inactive: -0.0585; that for GCUUUUCACCAAAUUGCAATT against MARCO, inactive: 0.137. The result for GGACAUUACCACAAUGGAATT against UGT8 reads inactive: 0; that for GGUUAACAAUAGUUUAUUATT against MUTED, inactive: 0.00377. The same measure for UGGCGACUUCAGUAAGCUATT against AKR1C2: inactive: -0.109; for CGUCUAUGCAACGACCUGATT against PACSIN1: inactive: -0.681. GCUCGGAACCUAGACAAGATT against DNAJC11: the median seed-adjusted z-score is inactive: 0.148.

Regarding AGGUGGGAUUCUAUCCAAATT against USF1, the median seed-adjusted z-score was inactive: 0.16. On to CAGUCACUGCACUACAGAATT against ATF7, for which the median seed-adjusted z-score was inactive: 0.903. On to CCCUUUUGUUUCUCGGAGATT against ERBB4, for which the median seed-adjusted z-score was inactive: 0.166. The same measure for GACUGAGGUUUGCUCGAAATT against KCNQ5: inactive: 0.0191; for GAAUGAAUCUACCACCUUUTT against DNTTIP1: inactive: -0.33; for GGAAGUUGUUCAACGAGAUTT against MLPH: active: -1.2. The result for GGAACACGCUGACAGGACATT against FZR1 reads inactive: 0.729.

As for CCAUGACCAUAUGAAUCUATT against LIPT1, the median seed-adjusted z-score is inactive: 0.552. Turning to CUCCGACAAUUCAACCAGATT against HNF1B, the median seed-adjusted z-score is inactive: -0.609. The result for CAGAGCUAAUUUAACUAAATT against ZNF286A reads inactive: 0.0368; that for GGAUGUCAAUGAUGAUUUUTT against DGUOK, inactive: 0.0168; that for GGACGACUCUGAUCUGGAUTT against DYNC1I1, inactive: -0.716. Take CAGUUAACUUAAUAGGUGATT against ADAM30: the median seed-adjusted z-score is inactive: 0.0576.

With GCCGUAUAAGUGUCAAGCATT against ZNF57, the median seed-adjusted z-score is inactive: 0.

As to GUUUAAGAGAAGUCGUUUATT against KIAA1804, the median seed-adjusted z-score was inactive: -0.211. With GCAGAGUCAUGACCAGGGATT against CHST6, the median seed-adjusted z-score was inactive: 0.372. On to GGAUCCUAAUAUACAUGAATT against IL18R1, for which the median seed-adjusted z-score is inactive: -0.206. For GGAGUUAAUUUGAUUGGGATT against VCAM1, the median seed-adjusted z-score is inactive: 0.19. The result for GGAAAAUACGAACUUUUAATT against GTF2H3 reads inactive: 0.356; that for CUCUUUAGCCGCUUCAUUATT against FMNL1, inactive: -0.3.

For the sequence CAUCUUAUCAGGCAUCAGATT against ZNF165, the median seed-adjusted z-score was inactive: 0.602. Take CAGACUUGGGUGAAAUAUATT against CCL20: the median seed-adjusted z-score was inactive: -0.204. The same measure for GAAGUUUGAUGGGACAAGATT against CD22: inactive: -0.448. In the case of GCCCAUAUCUGCUUAGUCATT against PELO, the median seed-adjusted z-score was inactive: 0.394. The result for GGAACCUGGUGACCAUAGATT against ANPEP reads inactive: 0.252. On to GGAAUGCUCCAAAAUGGGATT against FKBP1B, for which the median seed-adjusted z-score was inactive: -0.561. Consider GCUGGAAAGAUUAUCUAUATT against APOL6, for which the median seed-adjusted z-score is inactive: -0.167. The same measure for CGACCUACCGAGAAGAAAATT against GJB3: inactive: -0.198; for CCUUACGAAUUGGAGCUAATT against TNPO3: inactive: 0.577. For the sequence GGAAGAGACUCAAGGCCUATT against 8-Mar, the median seed-adjusted z-score was inactive: -0.106. On to CCAGCUCUUUCGUAUCUUUTT against CDK3, for which the median seed-adjusted z-score is inactive: 0.000485. In the case of GCUGUACAGUUUAGCUGUATT against ORC6L, the median seed-adjusted z-score is inactive: 0.

Regarding GGGUAACGGUUGUUGAUGUTT against UGDH, the median seed-adjusted z-score is inactive: 0.674. For the sequence GCCCAUUACUUUACCACUUTT against METTL4, the median seed-adjusted z-score is inactive: 0.244. The same measure for CCCAUUCCCUGUGCUCCAATT against CARD10: inactive: -0.929. The result for CAUUGUGAAUUGCACGGUGTT against LYPD1 reads inactive: -0.0713; that for AGACGAAGGUGCUGAAACATT against AP2S1, inactive: 0.146. On to GCAAUUACAUCGAGAUCAUTT against WNT3, for which the median seed-adjusted z-score is inactive: -0.839. Take CUCCUUCUAUCUGCCCAAATT against ADAMTS15: the median seed-adjusted z-score is inactive: 0.765.

In the case of ACCGGGUGCUGAUCAUGAATT against ABHD14B, the median seed-adjusted z-score was inactive: -0.175. Take GGAAGAUCGAAGUAGGUGATT against MDS1: the median seed-adjusted z-score is inactive: 0.0345. On to GAAGGUGAUUGGGACAAAATT against MRPS17, for which the median seed-adjusted z-score was inactive: -0.313. The same measure for CGUGUACACCCUAAACCUUTT against P2RY6: inactive: 0.00327.
